From patent US20250019430A1 come the findings set out here.

Sequences of proteins named here, by UniProt entry; tags and fusion partners are left off. A change or cut given only in a name is not applied to a line headed by its entry. Residues count along the entry.
UniProt Q9HD89: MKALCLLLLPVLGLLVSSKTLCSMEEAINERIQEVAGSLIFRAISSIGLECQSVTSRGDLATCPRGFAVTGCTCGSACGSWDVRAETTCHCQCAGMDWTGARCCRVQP
recombinant human resistin (peprotech, #450-19): residues 17-108 of Q9HD89
resistin antigen: residues 19-108 of Q9HD89

In one experiment the target is resistin antigen (UniProt Q9HD89). Nature of the experiment: ELISA of Example 12. Background: In an ELISA, binding on a coated surface is turned into a signal by an enzyme label.
In another experiment the target is RETN-flag-His (human) (UniProt Q9HD89). Nature of the experiment: ELISA, coated antigen, IgG at 1, 10, 100 nM.
Experiment [1] addresses recombinant human resistin (peprotech, #450-19) (human) (UniProt Q9HD89). Nature of the experiment: ELISA, coated recombinant human resistin, IgG at 1, 10, 100 nM.

No constants are given. Whether binding was seen depends on the method and setting. Some results given as binding are weak or reduced against the parent protein; the word gives no strength.

B1: RETN-5A2_LS_2D07 (antibody, human IgG1, V domains shown)
VH: QVQLVQSGAEGRKPGSSVKVSCKVSGDTFSSYAISWVRQAPGQGLEWMGGIIPIFGAADYAQKFKGRVTISADESTSTAYMELSSLRSEDTAVYYCAKGPDYYGSFDPWGQGTLITVSS
VL: QSALTQPASVSGSPGQSVTISCTGTSSDIGRYNRVSWYQHHPGKAPKLIIYDVSNRPSGVSNRFSGSKSGNTASLTISGLQAGDESDYYCSAYTRSSTWVFGGGTKLTVLR
Regarding B1, the binding entry (in the experiment with resistin antigen; with RETN-flag-His (human); in experiment [1]) was “binds” each time.

B2: RETN-5A2_LS_2E10 (antibody, human IgG1, V domains shown)
VH: QVQLVQSGAEGRKPGSSVKVSCKVSGDTFSSYAISWVRQAPGQGLEWMGGIIPIFGAADYAQKFKGRVTISADESTSTAYMELSSLRSEDTAVYYCAKGPDYYGSFDPWGQGTLITVSS
VL: DIQMTQSPSSLSASVGDRVTITCRTSQTITNYLNWYQQKPGRAPKLLIFDASNLETGVPSRFSGSGSGTDFTLTISSLQPEDFATYFCQQSYNPGYTFGQGTKLEIKR
Turning to B2, the binding entry (in the experiment with resistin antigen; in experiment [1]) was “binds” in each case.

B3: RETN-5A2 (antibody, human IgG1, V domains shown)
VH: QVQLVQSGAEGRKPGSSVKVSCKVSGDTFSSYAISWVRQAPGQGLEWMGGIIPIFGAADYAQKFKGRVTISADESTSTAYMELSSLRSEDTAVYYCAKGPDYYGSFDPWGQGTLITVSS
VL: DIQMTQSPSFLSASVGDRVTITCRASQYIGTYLAWYQQQPGKAPKLLIYGASILQNGVPSRFSGSASGTEFTLTISSLQPEDFATYYCQQADSFPLTFGGGTKVDIKR
In the case of B3, the binding entry in experiment [1] is “binds”.

B4: RETN-5A2_LS_2H10 (antibody, human IgG1, V domains shown)
VH: QVQLVQSGAEGRKPGSSVKVSCKVSGDTFSSYAISWVRQAPGQGLEWMGGIIPIFGAADYAQKFKGRVTISADESTSTAYMELSSLRSEDTAVYYCAKGPDYYGSFDPWGQGTLITVSS
VL: NFMLTQPASVSGSPGQSITISCTGSSSDVGGYNYVTWYQQHPGKAPQLIIYDVTKRPSGVSNRFSGSKSGNSASLTISGLQAEDEADYYCSSYSSSTFYVFGTGTKVTVLR
Take B4: the binding result (in the experiment with resistin antigen; with RETN-flag-His (human); in experiment [1]) was “binds” in each case.

B5: RETN-5A2_LS_2B02 (antibody, human IgG1, V domains shown)
VH: QVQLVQSGAEGRKPGSSVKVSCKVSGDTFSSYAISWVRQAPGQGLEWMGGIIPIFGAADYAQKFKGRVTISADESTSTAYMELSSLRSEDTAVYYCAKGPDYYGSFDPWGQGTLITVSS
VL: DIQMTQSPGTLSLSAGERATLSCRASQSVRGSYLAWYQQKPGQAPRLLIYGTSSRAPGIPDRFSGSGSGTDFTLTISSLEPEDFAVYYCQQRGDWLYTFGQGTKVEIKR
For B5, the binding result (with resistin antigen; in experiment [1]) was “binds” throughout.

B6: RETN-5A2_LS_2G03 (antibody, human IgG1, V domains shown)
VH: QVQLVQSGAEGRKPGSSVKVSCKVSGDTFSSYAISWVRQAPGQGLEWMGGIIPIFGAADYAQKFKGRVTISADESTSTAYMELSSLRSEDTAVYYCAKGPDYYGSFDPWGQGTLITVSS
VL: DIQMTQSPSSLSASVGDRVTITCQASQHVSSYLNWYQQKPGKAPKLLIYAASNLQSGVPSRFSGSGSGTDFTLTISSLQPDDFATYYCQQYDSYSSVYTFGPGTKLDIKR
Take B6: the binding result (in the experiment with resistin antigen; in experiment [1]) was “binds” in each case.

B7: RETN-5A2_LS_2F11 (antibody, human IgG1, V domains shown)
VH: QVQLVQSGAEGRKPGSSVKVSCKVSGDTFSSYAISWVRQAPGQGLEWMGGIIPIFGAADYAQKFKGRVTISADESTSTAYMELSSLRSEDTAVYYCAKGPDYYGSFDPWGQGTLITVSS
VL: DIQMTQSPSSLSASVGDRVTITCRASQSIGTYLNWYQQKPGKAPKLLIYDASSLEDGVPSRFSGSGSGTDFTLTISSLQPEDSATYYCQQSYTMPLYTFGQGTKLEIKR
Take B7: the binding entry (with resistin antigen; in experiment [1]) was “binds” in each case.
